Measurements: article doi:10.1101/2020.08.16.245639
No constants are given. Whether binding was seen depends on the method and setting. Binding seen in cells or lysates may run through a third protein. A yes stands for co-enrichment or nearness to the bait. Other partners may have been found.

Legend:
[1] = target: 3×FLAG-KDM3B; test: affinity purification with mass spectrometry
[2] = target: 3×FLAG-KDM3A; test: affinity purification with mass spectrometry

B1: HMGB2 (protein, UniProt P17741 1-210)
chain: MGKGDPNKPRGKMSSYAFFVQTCREEHKKKHPDSSVNFAEFSKKCSERWKTMSAKEKSKFEDMAKSDKARYDREMKNYVPPKGDKKGKKKDPNAPKRPPSAFFLFCSEHRPKIKSEHPGLSIGDTAKKLGEMWSEQSAKDKQPYEQKAAKLKEKYEKDIAAYRAKGKGEAGKKGPGRPTGSKKKNEPEDEEEEEEEEEDEDEEEEDEDEE
[1]
  binding: binds
[2]
  binding: binds
